Source: PMC12362098, “Dimerization of Cdc13 is essential for dynamic DNA exchange on telomeric DNA” (The Journal of Biological Chemistry, 2025)
Results are given in words; binding and its absence hold for the method and conditions named.

Tests used:
Cdc13-L91R [1] = target: T1, Cdc13-L91R (Saccharomyces cerevisiae, UniProt P32797 1-924, L91R); assay: mass photometry; 1x DNA-binding buffer with 50 nM Tel30G ssDNA, 11.25 nM protein, room temperature; both purified
T1 sequence: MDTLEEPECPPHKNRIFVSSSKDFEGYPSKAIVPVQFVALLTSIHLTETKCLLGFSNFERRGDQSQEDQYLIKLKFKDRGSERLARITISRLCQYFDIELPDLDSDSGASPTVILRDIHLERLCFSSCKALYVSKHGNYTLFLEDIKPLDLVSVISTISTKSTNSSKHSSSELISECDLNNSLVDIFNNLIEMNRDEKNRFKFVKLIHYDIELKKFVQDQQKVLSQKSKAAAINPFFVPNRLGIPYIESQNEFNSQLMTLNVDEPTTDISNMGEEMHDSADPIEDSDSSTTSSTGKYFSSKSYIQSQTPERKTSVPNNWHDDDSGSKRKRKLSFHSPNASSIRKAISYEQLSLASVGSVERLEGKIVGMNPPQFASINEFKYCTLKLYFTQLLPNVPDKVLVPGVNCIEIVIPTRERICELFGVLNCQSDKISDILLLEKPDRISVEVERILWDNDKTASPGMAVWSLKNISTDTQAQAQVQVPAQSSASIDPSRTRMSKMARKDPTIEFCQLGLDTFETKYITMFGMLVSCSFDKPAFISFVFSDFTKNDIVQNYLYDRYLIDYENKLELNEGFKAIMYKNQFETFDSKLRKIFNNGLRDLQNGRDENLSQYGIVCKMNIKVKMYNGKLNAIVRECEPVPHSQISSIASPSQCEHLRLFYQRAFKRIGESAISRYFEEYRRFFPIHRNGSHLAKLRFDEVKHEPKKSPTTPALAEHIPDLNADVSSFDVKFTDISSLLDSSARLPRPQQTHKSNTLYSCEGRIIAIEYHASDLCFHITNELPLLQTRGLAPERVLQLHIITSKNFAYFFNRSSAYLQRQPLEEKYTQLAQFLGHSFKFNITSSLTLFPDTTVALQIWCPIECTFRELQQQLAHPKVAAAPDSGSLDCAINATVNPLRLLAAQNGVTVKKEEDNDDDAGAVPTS

Cdc13-L91R [2] = target: T1, Cdc13-L91R; assay: mass photometry; 1x DNA-binding buffer with 50 nM Tel50G ssDNA, 11.25 nM protein, room temperature; both purified
Cdc13-L91R [3] = target: T1, Cdc13-L91R; assay: mass photometry; protein alone in 1x DNA-binding buffer (25 mM HEPES pH 8.0, 50 mM NaOAc, 150 mM NaCl, 7.5 mM MgCl2), 11.25 nM protein, room temperature; both purified

Measured: binding

B1: Cdc13-L91R (protein, UniProt P32797 1-924)
chain: T1 sequence
no binding (tested: 11.25 nM): all assays above
